This note sets out measurements from paper PMC10673202.

Protein sequences, listed by entry. Tags and fused reporters are not part of them.
UniProt P29466: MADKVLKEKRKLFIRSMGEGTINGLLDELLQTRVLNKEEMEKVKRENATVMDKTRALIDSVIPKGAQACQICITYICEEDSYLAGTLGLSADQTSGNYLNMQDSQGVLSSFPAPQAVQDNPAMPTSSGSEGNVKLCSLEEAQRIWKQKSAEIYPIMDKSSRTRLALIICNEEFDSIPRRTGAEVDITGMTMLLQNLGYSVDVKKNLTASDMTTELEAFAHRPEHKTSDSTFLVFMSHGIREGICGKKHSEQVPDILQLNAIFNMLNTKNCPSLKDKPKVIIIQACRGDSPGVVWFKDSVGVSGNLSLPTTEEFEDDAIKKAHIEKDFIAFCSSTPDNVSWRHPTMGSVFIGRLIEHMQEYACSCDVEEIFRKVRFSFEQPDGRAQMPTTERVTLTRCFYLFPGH
UniProt Q9ULZ3: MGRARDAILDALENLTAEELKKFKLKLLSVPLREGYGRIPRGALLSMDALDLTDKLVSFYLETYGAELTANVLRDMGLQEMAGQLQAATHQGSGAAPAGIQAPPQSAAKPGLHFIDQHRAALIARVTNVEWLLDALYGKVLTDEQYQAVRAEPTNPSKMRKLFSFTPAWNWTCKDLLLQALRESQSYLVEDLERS

Results are given in words; binding and its absence hold for the method and conditions named. In cells and extracts the contact can be indirect. Some results given as binding are weak or reduced against the parent protein; the word gives no strength.

The target in this test is Flag-tagged pro-caspase-1 (UniProt P29466). In words: co-IP.

“HA-tagged ASC (from UniProt Q9ULZ3 1-195)”: the binding result is “binds”.
